{"sequences": {"note": "The chains behind the UniProt entries cited, without tags or fusion partners. Where a name states a change or a piece, a line headed by the entry shows the natural chain unless it says otherwise. Residues count along the entry.", "UniProt P16070": "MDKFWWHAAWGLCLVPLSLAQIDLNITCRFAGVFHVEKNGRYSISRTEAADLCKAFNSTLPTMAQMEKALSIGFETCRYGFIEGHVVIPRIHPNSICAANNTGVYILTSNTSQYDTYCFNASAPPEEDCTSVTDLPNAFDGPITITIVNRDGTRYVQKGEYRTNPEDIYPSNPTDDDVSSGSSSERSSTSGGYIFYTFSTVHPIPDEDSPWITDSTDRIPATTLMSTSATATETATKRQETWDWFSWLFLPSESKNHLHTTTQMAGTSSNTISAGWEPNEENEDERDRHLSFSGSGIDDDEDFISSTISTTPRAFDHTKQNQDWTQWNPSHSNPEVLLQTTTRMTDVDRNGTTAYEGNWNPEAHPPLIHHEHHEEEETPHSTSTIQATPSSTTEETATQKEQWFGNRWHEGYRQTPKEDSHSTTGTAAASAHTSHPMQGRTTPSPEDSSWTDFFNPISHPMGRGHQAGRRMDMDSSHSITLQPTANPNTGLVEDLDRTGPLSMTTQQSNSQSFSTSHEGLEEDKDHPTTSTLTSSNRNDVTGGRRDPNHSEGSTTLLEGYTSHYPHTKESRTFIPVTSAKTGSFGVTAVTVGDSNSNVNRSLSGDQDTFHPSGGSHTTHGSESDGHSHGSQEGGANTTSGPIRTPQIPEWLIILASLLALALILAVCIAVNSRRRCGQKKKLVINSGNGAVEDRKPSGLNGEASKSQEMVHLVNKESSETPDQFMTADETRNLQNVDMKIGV", "UniProt P54764, residues 20-986": "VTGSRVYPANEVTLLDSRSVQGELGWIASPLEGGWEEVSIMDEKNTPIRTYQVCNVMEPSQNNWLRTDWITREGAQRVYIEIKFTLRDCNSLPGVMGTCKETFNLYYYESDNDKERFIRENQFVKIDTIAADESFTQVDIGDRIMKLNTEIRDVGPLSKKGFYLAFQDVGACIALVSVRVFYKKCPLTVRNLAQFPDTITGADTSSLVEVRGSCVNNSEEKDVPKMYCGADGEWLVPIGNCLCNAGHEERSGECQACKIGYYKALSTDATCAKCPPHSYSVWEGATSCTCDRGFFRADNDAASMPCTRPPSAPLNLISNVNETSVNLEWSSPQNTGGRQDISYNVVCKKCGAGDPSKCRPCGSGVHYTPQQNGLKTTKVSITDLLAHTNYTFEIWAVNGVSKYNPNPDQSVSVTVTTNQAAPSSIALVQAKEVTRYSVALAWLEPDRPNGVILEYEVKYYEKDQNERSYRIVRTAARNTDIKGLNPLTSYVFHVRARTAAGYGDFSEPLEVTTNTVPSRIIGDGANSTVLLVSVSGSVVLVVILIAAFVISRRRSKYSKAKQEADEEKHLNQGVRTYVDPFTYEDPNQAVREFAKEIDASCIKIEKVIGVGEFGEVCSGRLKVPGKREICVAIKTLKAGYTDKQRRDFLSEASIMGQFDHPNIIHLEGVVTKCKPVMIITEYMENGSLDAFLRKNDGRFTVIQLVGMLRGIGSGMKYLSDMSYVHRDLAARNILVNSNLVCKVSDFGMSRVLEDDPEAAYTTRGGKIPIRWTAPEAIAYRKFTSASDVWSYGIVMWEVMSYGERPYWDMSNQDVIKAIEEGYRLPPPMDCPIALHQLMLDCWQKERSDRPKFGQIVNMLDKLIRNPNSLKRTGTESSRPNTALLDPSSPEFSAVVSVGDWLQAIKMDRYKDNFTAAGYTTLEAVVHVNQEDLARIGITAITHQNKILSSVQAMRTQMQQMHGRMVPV", "UniProt P16144, residues 28-1822": "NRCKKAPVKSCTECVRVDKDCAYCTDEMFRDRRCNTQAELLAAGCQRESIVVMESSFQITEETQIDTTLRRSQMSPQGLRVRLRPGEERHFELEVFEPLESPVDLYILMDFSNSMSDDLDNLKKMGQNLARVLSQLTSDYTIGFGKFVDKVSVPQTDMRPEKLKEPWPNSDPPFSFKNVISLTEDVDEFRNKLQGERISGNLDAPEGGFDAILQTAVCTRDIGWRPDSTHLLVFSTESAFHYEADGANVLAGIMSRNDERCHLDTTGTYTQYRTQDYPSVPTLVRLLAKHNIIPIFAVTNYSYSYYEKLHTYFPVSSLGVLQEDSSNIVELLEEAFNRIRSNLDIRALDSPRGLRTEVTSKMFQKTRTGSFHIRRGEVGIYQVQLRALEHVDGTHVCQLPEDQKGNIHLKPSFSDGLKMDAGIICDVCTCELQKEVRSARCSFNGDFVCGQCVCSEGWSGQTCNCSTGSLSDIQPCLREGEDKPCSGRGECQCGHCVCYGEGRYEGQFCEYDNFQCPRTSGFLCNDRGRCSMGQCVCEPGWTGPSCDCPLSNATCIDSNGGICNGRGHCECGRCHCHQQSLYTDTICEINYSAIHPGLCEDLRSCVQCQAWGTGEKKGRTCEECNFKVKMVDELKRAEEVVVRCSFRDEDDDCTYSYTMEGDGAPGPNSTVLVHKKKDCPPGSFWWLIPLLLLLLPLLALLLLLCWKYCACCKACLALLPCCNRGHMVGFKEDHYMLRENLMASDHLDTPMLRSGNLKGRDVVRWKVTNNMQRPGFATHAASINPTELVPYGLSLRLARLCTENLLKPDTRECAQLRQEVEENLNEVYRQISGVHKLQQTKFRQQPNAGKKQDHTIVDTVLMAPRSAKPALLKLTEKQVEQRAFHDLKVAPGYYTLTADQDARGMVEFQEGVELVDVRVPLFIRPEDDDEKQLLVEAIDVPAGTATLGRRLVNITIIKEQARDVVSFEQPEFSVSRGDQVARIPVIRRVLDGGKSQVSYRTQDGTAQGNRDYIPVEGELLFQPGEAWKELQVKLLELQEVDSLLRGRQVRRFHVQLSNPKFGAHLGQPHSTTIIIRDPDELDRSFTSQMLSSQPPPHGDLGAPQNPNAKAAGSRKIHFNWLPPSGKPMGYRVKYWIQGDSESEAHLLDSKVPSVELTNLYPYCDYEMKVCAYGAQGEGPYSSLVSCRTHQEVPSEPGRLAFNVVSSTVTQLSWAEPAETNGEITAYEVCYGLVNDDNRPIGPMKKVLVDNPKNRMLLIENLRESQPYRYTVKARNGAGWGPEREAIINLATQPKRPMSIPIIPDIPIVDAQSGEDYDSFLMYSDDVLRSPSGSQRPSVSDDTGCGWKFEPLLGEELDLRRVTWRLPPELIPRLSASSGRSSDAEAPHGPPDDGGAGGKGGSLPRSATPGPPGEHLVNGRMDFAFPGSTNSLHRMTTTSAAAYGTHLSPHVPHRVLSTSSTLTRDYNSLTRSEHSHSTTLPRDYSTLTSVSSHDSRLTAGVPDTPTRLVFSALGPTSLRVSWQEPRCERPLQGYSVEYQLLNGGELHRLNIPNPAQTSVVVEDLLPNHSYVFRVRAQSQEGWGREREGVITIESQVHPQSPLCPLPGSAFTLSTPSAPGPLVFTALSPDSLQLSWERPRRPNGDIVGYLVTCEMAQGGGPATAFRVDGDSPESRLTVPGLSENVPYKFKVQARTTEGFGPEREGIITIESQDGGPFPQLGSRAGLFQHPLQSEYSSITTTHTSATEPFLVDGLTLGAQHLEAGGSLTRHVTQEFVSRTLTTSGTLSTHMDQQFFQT", "UniProt Q9H9S0": "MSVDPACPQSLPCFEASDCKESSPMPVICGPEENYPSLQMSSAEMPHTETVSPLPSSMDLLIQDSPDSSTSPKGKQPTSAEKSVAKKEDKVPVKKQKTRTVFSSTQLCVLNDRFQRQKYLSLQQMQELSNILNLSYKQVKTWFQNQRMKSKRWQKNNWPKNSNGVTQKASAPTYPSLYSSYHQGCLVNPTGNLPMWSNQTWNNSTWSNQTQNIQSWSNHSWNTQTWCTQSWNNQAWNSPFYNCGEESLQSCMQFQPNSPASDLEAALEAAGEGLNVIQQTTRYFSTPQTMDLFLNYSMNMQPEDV", "UniProt P35222": "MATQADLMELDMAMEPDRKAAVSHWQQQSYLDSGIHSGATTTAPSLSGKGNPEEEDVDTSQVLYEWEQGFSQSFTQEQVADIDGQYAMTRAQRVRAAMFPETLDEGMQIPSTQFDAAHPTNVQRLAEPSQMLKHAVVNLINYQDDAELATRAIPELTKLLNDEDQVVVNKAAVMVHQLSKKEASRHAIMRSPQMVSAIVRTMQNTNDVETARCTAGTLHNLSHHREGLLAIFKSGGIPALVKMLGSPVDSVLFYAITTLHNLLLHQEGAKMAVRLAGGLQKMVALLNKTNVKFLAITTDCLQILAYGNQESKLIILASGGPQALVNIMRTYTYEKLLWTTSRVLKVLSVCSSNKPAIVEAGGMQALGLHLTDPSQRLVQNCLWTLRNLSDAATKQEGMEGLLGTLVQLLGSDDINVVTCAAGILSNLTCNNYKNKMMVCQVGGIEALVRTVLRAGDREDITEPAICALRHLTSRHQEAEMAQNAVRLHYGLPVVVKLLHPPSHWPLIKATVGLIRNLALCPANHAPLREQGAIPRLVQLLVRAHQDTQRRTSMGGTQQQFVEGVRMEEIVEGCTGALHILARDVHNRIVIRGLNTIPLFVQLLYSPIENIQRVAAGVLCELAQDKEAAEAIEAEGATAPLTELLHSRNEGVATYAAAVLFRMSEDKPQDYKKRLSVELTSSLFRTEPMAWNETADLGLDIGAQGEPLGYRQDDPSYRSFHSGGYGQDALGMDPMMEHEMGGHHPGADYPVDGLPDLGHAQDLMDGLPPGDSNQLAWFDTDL", "UniProt P08581, residues 25-1390": "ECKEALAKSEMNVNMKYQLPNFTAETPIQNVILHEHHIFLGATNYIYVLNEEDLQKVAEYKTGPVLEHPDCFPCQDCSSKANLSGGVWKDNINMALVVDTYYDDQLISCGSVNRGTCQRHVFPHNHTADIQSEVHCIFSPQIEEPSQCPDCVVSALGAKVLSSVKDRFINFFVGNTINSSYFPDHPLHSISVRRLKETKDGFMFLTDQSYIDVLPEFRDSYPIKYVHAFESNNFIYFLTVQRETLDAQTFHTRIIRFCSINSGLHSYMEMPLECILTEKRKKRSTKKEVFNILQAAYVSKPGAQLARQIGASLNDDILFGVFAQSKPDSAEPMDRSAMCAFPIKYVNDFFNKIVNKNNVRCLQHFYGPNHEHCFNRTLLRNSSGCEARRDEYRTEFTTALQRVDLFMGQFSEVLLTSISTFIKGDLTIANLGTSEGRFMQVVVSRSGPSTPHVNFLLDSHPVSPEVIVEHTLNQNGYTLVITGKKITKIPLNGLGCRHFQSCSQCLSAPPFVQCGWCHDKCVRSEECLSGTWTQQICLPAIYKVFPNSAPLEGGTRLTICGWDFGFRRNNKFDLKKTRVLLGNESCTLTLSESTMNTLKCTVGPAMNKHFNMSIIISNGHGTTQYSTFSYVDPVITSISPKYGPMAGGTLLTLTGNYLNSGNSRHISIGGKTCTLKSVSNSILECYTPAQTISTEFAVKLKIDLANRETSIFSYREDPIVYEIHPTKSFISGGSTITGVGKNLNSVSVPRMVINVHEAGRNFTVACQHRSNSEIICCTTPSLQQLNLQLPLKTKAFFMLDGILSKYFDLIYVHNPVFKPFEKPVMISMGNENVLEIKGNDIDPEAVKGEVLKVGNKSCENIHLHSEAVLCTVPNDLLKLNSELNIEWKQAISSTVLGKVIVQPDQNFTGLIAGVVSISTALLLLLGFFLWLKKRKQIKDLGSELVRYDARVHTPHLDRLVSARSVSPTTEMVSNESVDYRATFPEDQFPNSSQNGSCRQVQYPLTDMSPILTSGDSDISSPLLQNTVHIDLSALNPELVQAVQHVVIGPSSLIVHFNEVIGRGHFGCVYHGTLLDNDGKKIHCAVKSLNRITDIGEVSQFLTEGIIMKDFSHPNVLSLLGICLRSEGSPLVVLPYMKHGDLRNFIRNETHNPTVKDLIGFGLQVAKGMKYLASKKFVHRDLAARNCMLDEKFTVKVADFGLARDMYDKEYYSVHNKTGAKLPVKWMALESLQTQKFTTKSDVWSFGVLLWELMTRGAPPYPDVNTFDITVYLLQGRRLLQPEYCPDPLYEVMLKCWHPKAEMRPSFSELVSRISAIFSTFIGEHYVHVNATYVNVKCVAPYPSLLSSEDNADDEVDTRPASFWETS"}, "source": "paper PMC6702834", "molecules": {"B1": {"name": "Tspan8 (protein, UniProt P19075 1-237)", "chain": "MAGVSACIKYSMFTFNFLFWLCGILILALAIWVRVSNDSQAIFGSEDVGSSSYVAVDILIAVGAIIMILGFLGCCGAIKESRCMLLLFFIGLLLILLLQVATGILGAVFKSKSDRIVNETLYENTKLLSATGESEKQFQEAIIVFQEEFKCCGLVNGAADWGNNFQHYPELCACLDKQRPCQSYNGKQVYKETCISFIKDFLAKNLIIVIGISFGLAVIEILGLVFSMVLYCQIGNK"}, "B2": {"name": "leucine rich repeat containing G protein-coupled receptor 5 (receptor, UniProt O75473 22-907)", "chain": "GSSPRSGVLLRGCPTHCHCEPDGRMLLRVDCSDLGLSELPSNLSVFTSYLDLSMNNISQLLPNPLPSLRFLEELRLAGNALTYIPKGAFTGLYSLKVLMLQNNQLRHVPTEALQNLRSLQSLRLDANHISYVPPSCFSGLHSLRHLWLDDNALTEIPVQAFRSLSALQAMTLALNKIHHIPDYAFGNLSSLVVLHLHNNRIHSLGKKCFDGLHSLETLDLNYNNLDEFPTAIRTLSNLKELGFHSNNIRSIPEKAFVGNPSLITIHFYDNPIQFVGRSAFQHLPELRTLTLNGASQITEFPDLTGTANLESLTLTGAQISSLPQTVCNQLPNLQVLDLSYNLLEDLPSFSVCQKLQKIDLRHNEIYEIKVDTFQQLLSLRSLNLAWNKIAIIHPNAFSTLPSLIKLDLSSNLLSSFPITGLHGLTHLKLTGNHALQSLISSENFPELKVIEMPYAYQCCAFGVCENAYKISNQWNKGDNSSMDDLHKKDAGMFQAQDERDLEDFLLDFEEDLKALHSVQCSPSPGPFKPCEHLLDGWLIRIGVWTIAVLALTCNALVTSTVFRSPLYISPIKLLIGVIAAVNMLTGVSSAVLAGVDAFTFGSFARHGAWWENGVGCHVIGFLSIFASESSVFLLTLAALERGFSVKYSAKFETKAPFSSLKVIILLCALLALTMAAVPLLGGSKYGASPLCLPLPFGEPSTMGYMVALILLNSLCFLMMTIAYTKLYCNLDKGDLENIWDCSMVKHIALLLFTNCILNCPVAFLSFSSLINLTFISPEVIKFILLVVVPLPACLNPLLYILFNPHFKEDLVSLRKQTYVWTRSKHPSLMSINSDDVEKQSCDSTQALVTFTSSSITYDLPPSSVPSPAYPVTESCHLSSVAFVPCL"}}, "key": {"[1]": {"target": "CD44 variant 6 isoform (human (endogenous in A818.4 and Capan1)) (UniProt P16070)", "assay": "co-IP; endogenous proteins in cell lysates (A818.4; Figure 6(d) also Capan1; wt, CD44v6kd or Tspan8kd cells); 500 ug lysate, HEPES buffer, 1% Lubrol or 1% TritonX-100; antibody 1h 4°C, ProteinG-Sepharose 1h; Western blot"}, "[2]": {"target": "EphA4 (human (endogenous in A818.4)) (UniProt P54764)", "assay": "co-IP; endogenous proteins in TEX (exosome) lysates of A818.4 (wt, CD44v6kd or Tspan8kd); 100 ug lysate, HEPES buffer, 1% Lubrol or 1% TritonX-100; antibody 1h 4°C, ProteinG-Sepharose 1h; Western blot"}, "[3]": {"target": "CD104 (human (endogenous in A818.4)) (UniProt P16144)", "assay": "co-IP; endogenous proteins in TEX (exosome) lysates of A818.4 (wt, CD44v6kd or Tspan8kd); 100 ug lysate, HEPES buffer, 1% Lubrol or 1% TritonX-100; antibody 1h 4°C, ProteinG-Sepharose 1h; Western blot"}, "[4]": {"target": "T1, Tspan8 (human (endogenous in A818.4 and Capan1)) (UniProt P19075)", "T1 sequence": "B1 chain", "assay": "co-IP; endogenous proteins in TEX (exosome) lysates of A818.4 (wt, CD44v6kd or Tspan8kd); 100 ug lysate, HEPES buffer, 1% Lubrol or 1% TritonX-100; antibody 1h 4°C, ProteinG-Sepharose 1h; Western blot"}, "[5]": {"target": "T2, prostaglandin F2 receptor negative regulator (human (endogenous in A818.4)) (UniProt Q9P2B2)", "T2 sequence": "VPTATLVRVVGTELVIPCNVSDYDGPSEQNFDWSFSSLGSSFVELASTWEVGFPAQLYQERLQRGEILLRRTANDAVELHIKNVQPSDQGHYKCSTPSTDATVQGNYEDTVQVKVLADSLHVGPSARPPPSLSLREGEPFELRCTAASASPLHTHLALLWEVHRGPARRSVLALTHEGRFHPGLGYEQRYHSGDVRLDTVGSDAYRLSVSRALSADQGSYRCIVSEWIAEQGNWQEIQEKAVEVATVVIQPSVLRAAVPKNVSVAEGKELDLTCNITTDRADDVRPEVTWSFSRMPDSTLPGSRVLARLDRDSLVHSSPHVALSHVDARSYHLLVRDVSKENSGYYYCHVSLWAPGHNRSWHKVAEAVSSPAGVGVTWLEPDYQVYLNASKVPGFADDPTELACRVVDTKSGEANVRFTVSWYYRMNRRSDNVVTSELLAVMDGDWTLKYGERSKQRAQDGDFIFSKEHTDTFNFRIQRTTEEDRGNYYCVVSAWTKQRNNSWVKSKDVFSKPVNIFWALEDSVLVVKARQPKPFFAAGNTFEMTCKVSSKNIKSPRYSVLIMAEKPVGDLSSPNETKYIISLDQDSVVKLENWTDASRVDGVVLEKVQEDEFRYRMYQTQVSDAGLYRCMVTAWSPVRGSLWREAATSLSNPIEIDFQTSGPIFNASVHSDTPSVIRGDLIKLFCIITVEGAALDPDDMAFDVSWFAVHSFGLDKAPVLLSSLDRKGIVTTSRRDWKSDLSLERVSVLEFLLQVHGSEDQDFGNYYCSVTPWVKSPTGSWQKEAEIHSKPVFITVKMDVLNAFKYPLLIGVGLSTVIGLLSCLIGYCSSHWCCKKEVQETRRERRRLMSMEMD", "assay": "co-IP; endogenous proteins in TEX (exosome) lysates of A818.4 (wt, CD44v6kd or Tspan8kd); 100 ug lysate, HEPES buffer, 1% Lubrol or 1% TritonX-100; antibody 1h 4°C, ProteinG-Sepharose 1h; Western blot"}, "[6]": {"target": "EphA4 (human (endogenous in A818.4)) (UniProt P54764)", "assay": "co-IP; endogenous proteins in cell lysates (A818.4; Figure 6(d) also Capan1; wt, CD44v6kd or Tspan8kd cells); 500 ug lysate, HEPES buffer, 1% Lubrol or 1% TritonX-100; antibody 1h 4°C, ProteinG-Sepharose 1h; Western blot"}, "[7]": {"target": "CD104 (human (endogenous in A818.4)) (UniProt P16144)", "assay": "co-IP; endogenous proteins in cell lysates (A818.4; Figure 6(d) also Capan1; wt, CD44v6kd or Tspan8kd cells); 500 ug lysate, HEPES buffer, 1% Lubrol or 1% TritonX-100; antibody 1h 4°C, ProteinG-Sepharose 1h; Western blot"}, "[8]": {"target": "T2, prostaglandin F2 receptor negative regulator (human (endogenous in A818.4))", "assay": "co-IP; endogenous proteins in cell lysates (A818.4; Figure 6(d) also Capan1; wt, CD44v6kd or Tspan8kd cells); 500 ug lysate, HEPES buffer, 1% Lubrol or 1% TritonX-100; antibody 1h 4°C, ProteinG-Sepharose 1h; Western blot"}, "[9]": {"target": "CD44 variant 6 isoform (human (endogenous in A818.4 and Capan1)) (UniProt P16070)", "assay": "co-IP; endogenous proteins in TEX (exosome) lysates of A818.4 (wt, CD44v6kd or Tspan8kd); 100 ug lysate, HEPES buffer, 1% Lubrol or 1% TritonX-100; antibody 1h 4°C, ProteinG-Sepharose 1h; Western blot"}, "[10]": {"target": "CD44 variant 6 isoform (human (endogenous in A818.4 and Capan1)) (UniProt P16070)", "assay": "co-IP; endogenous proteins in cell lysates (A818.4; Figure 6(d) also Capan1; wt, CD44v6kd or Tspan8kd cells); 500 ug lysate, HEPES buffer, 1% Lubrol or 1% TritonX-100; antibody 1h 4°C, ProteinG-Sepharose 1h; Western blot", "remark": "listed apart in the source"}}, "note": "Results are given in words; binding and its absence hold for the method and conditions named. In cells and extracts the contact can be indirect. Binding can be weak; no strength is given. For some assays here: Where a sequence is shown, tags or fusion partners need not be part of it."}
{"molecule": "Nanog (from UniProt Q9H9S0 1-305)", "values": [{"measurement": "binding", "setting": "[1]", "result": "binds weakly"}]}
{"molecule": "NOTCH (from UniProt P46531 19-2555)", "values": [{"measurement": "binding", "setting": "[1]", "result": "binds"}]}
{"molecule": "β-catenin (from UniProt P35222 1-781)", "values": [{"measurement": "binding", "setting": "[1]", "result": "binds weakly"}]}
{"molecule": "MET (from UniProt P08581 25-1390) (receptor)", "values": [{"measurement": "binding", "setting": "[1]", "result": "binds"}]}
{"molecule": "CD44 variant 6 isoform (from UniProt P16070)", "values": [{"measurement": "binding", "setting": "[2]", "result": "binds"}, {"measurement": "binding", "setting": "[3]", "result": "binds"}, {"measurement": "binding", "setting": "[4]", "result": "binds"}, {"measurement": "binding", "setting": "[5]", "result": "binds"}, {"measurement": "binding", "setting": "[6]", "result": "binds"}, {"measurement": "binding", "setting": "[7]", "result": "binds"}, {"measurement": "binding", "setting": "[8]", "result": "binds"}]}
{"molecule": "B1", "values": [{"measurement": "binding", "setting": "[9]", "result": "binds"}, {"measurement": "binding", "setting": "[10]", "result": "binds"}]}
{"molecule": "B2", "values": [{"measurement": "binding", "setting": "[10]", "result": "binds"}]}
